{"source": "patent US6767916B2", "about": "(Indena S.p.A., priority 1999, dated 2004)", "system": "drug-resistant breast cancer cells MDA435/LCC6-MDR", "test": "cytostatic activity in combination with paclitaxel (SRB cell growth inhibition)", "assay_type": "cell-based", "settings": "combination versus paclitaxel alone", "procedure": "Following a five minute incubation at room temperature, plates were rinsed 5 times with 0.1% acetic acid and air dried. Bound dye was solubilized with 10 mM Tris Base (pH 10.5) for 5 min on a gyratory shaker.", "note": "Some results were stated once for a whole list of compounds, not compound by compound."}
{"smiles": "C=C(C)COc1ccc2c(C)cc(=O)oc2c1C(=O)C=Cc1cccnc1", "note": "[VIB 122, 1-[4-Methyl-7-(2-methylallyloxy)coumarin8-yl]-3-(pyridine-3-yl)propen-1-one]", "values": [{"measurement": "fold decrease of IC50 of paclitaxel in combination", "result": "3-5 fold"}]}
